Data as given in PubChem BioAssay AID1671195 (Yale University, 2021).
Purpose: 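Genes whose knockdown alters LDL uptake in liver cancer cells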 (primary screen). Cells: human Huh7 hepatoma cells. Knock-down reagent: siRNA pool against human genes, 18 nM. Duration: about 2 to 2.5 days of knockdown, then 8 h LDL uptake. Treatment: DiI-labelled LDL at 30 µg/ml for 8 h, in lipoprotein-deficient serum medium. Detection: 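Fluorescent LDL signal imaged in cells, scaled to the plate median, robust z-score for each replicate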. Direction: robust z-score: higher = more LDL uptake after knockdown. Active means: 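a gene counts as active if at least two replicate z-scores exceed ±2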.
Shown is a random part of about 22,000 reagents. Of all reagents, about 1,510 (6.9%) got an active call. 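Active includes knockdowns raising or lowering LDL uptake; positive z-scores mean more uptake, negative mean less.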

The opening 8 entries, to show the layout:
gene symbol | PubChem SID | robust z-score, replicate 1 | robust z-score, replicate 2 | robust z-score, replicate 3 | activity call
TCOF1 (treacle ribosome biogenesis factor 1) | SID442897181 | -0.367 | -0.0102 | -0.69 | inactive
GALNT17 (polypeptide N-acetylgalactosaminyltransferase 17) | SID442896418 | -0.266 | -0.0777 | -0.469 | inactive
LOC441047 (retired record) | SID442902730 | -0.951 | -1.35 | -1.11 | inactive
MEP1AP3 (meprin A subunit alpha pseudogene 3) | SID442883206 | 4.28 | 3.6 | 3.89 | active
TASOR2 (transcription activation suppressor family member 2) | SID442891214 | -0.74 | 1.08 | 0.605 | inactive
RIPPLY2 (ripply transcriptional repressor 2) | SID442889375 | -0.386 | 1.35 | 0.74 | inactive
CPD (carboxypeptidase D) | SID442889783 | 0.603 | 0.644 | 0.287 | inactive
AP3M1 (adaptor related protein complex 3 subunit mu 1) | SID442895024 | 0.556 | -0.65 | -0.283 | inactive

The list itself, from the first entry:
gene symbol | PubChem SID | robust z-score, replicate 1 | robust z-score, replicate 2 | robust z-score, replicate 3 | activity call
TCOF1 (treacle ribosome biogenesis factor 1) | SID442897181 | -0.367 | -0.0102 | -0.69 | inactive
GALNT17 (polypeptide N-acetylgalactosaminyltransferase 17) | SID442896418 | -0.266 | -0.0777 | -0.469 | inactive
LOC441047 (retired record) | SID442902730 | -0.951 | -1.35 | -1.11 | inactive
MEP1AP3 (meprin A subunit alpha pseudogene 3) | SID442883206 | 4.28 | 3.6 | 3.89 | active
TASOR2 (transcription activation suppressor family member 2) | SID442891214 | -0.74 | 1.08 | 0.605 | inactive
RIPPLY2 (ripply transcriptional repressor 2) | SID442889375 | -0.386 | 1.35 | 0.74 | inactive
CPD (carboxypeptidase D) | SID442889783 | 0.603 | 0.644 | 0.287 | inactive
AP3M1 (adaptor related protein complex 3 subunit mu 1) | SID442895024 | 0.556 | -0.65 | -0.283 | inactive
ZRSR2 | SID442888952 | 0.617 | 0.769 | 0.521 | inactive
CFAP53 (cilia and flagella associated protein 53) | SID442892398 | 0.197 | 0.152 | 0.167 | inactive
NCAPG2 (non-SMC condensin II complex subunit G2) | SID442883446 | 3.42 | 2.95 | 2.27 | active
GOLGA6L9 (golgin A6 family like 9) | SID442896151 | -0.134 | -0.419 | -0.176 | inactive
SMPD4 (sphingomyelin phosphodiesterase 4) | SID442884145 | 2.51 | 0.987 | 2.19 | active
USP19 (ubiquitin specific peptidase 19) | SID442890879 | 0.192 | 0.612 | 0.274 | inactive
MAP3K5 (mitogen-activated protein kinase kinase kinase 5) | SID442883970 | 0.998 | 2.71 | 2.63 | active
ENTPD5 (ectonucleoside triphosphate diphosphohydrolase 5) | SID442897094 | -1.09 | 0.863 | -0.813 | inactive
LOC441091 (retired record) | SID442883580 | 2.35 | 3.13 | 2.42 | active
CRIP3 (cysteine rich protein 3) | SID442904506 | -1.65 | -1.49 | -1.88 | inactive
TINCR (TINCR ubiquitin domain containing) | SID442888964 | 0.245 | 0.744 | 0.911 | inactive
RTP4 (receptor transporter protein 4) | SID442904723 | -2.08 | -1.69 | -1.74 | inactive
DEFB109B (defensin beta 109B) | SID442892626 | 0.218 | 0.073 | 0.141 | inactive
FAM131C (family with sequence similarity 131 member C) | SID442894576 | -0.0801 | -0.355 | 0.205 | inactive
CYTIP (cytohesin 1 interacting protein) | SID442896928 | 0.289 | -0.455 | -0.818 | inactive
FAM241B (family with sequence similarity 241 member B) | SID442885448 | 1.66 | 1.74 | 1.12 | inactive
IMPDH2 (inosine monophosphate dehydrogenase 2) | SID442903334 | -1.24 | -1.25 | -1.34 | inactive
RBP1 (retinol binding protein 1) | SID442889494 | 0.744 | 0.574 | 0.331 | inactive
PSME1 (proteasome activator subunit 1) | SID442901357 | -0.525 | -0.602 | -1.54 | inactive
UQCRC1 (ubiquinol-cytochrome c reductase core protein 1) | SID442892218 | 0.254 | 0.00279 | 0.33 | inactive
MGC40069 (retired record) | SID442899293 | -0.568 | -0.827 | -0.411 | inactive
SIGLEC15 (sialic acid binding Ig like lectin 15) | SID442890303 | 0.313 | 0.261 | 0.732 | inactive
FARP2 (FERM, ARH/RhoGEF and pleckstrin domain protein 2) | SID442884832 | 1.77 | 2.31 | 1.47 | inactive
SPINT1 (serine peptidase inhibitor, Kunitz type 1) | SID442894052 | 0.427 | -0.279 | -0.211 | inactive
C10orf53 (chromosome 10 open reading frame 53) | SID442889948 | 0.275 | 0.612 | 0.564 | inactive
ACTL6A (actin like 6A) | SID442900213 | -1.2 | -0.944 | -0.0511 | inactive
RPS3A (ribosomal protein S3A) | SID442894360 | -0.977 | -0.402 | 1.21 | inactive
MRPL40 (mitochondrial ribosomal protein L40) | SID442900414 | -0.835 | -1.47 | 0.0387 | inactive
LDAH (lipid droplet associated hydrolase) | SID442903226 | -1.02 | -1.22 | -1.49 | inactive
LOC388193 (retired record) | SID442889505 | 0.645 | 0.523 | 0.475 | inactive
GPM6B (glycoprotein M6B) | SID442902818 | -1.29 | -1.1 | -1.07 | inactive
LSM5 | SID442898285 | -1.1 | 0.513 | -0.857 | inactive
CCL8 (C-C motif chemokine ligand 8) | SID442899105 | -0.612 | -0.745 | -0.372 | inactive
MXI1 (MAX interactor 1, dimerization protein) | SID442898714 | -0.455 | -0.609 | -0.523 | inactive
FUT1 (fucosyltransferase 1 (H blood group)) | SID442891185 | 0.503 | -0.0579 | 0.514 | inactive
MRPL3 (mitochondrial ribosomal protein L3) | SID442884436 | -2.14 | -2.59 | -1.64 | active
DEPTOR (DEP domain containing MTOR interacting protein) | SID442903498 | -1.21 | -1.3 | -1.42 | inactive
DPPA3 (developmental pluripotency associated 3) | SID442883976 | 2.31 | 2.01 | 1.99 | active
SHCBP1L (SHC binding and spindle associated 1 like) | SID442902464 | -1.11 | -1 | -1.13 | inactive
TSLIG1 (tRNA splicing ligase complex subunit 1) | SID442890617 | 0.494 | 0.235 | 0.444 | inactive
KCTD1 (potassium channel tetramerization domain containing 1) | SID442887483 | 0.878 | 1.03 | 0.804 | inactive
UBE2Q2P1 (UBE2Q2 pseudogene 1) | SID442886372 | 1.12 | 1.27 | 1.15 | inactive
TTYH2 (tweety family member 2) | SID442902931 | -1.3 | -1.08 | -1.15 | inactive
ESAM (endothelial cell adhesion molecule) | SID442900536 | -1.21 | -0.827 | -0.282 | inactive
LILRA5 (leukocyte immunoglobulin like receptor A5) | SID442888483 | 1.18 | 0.173 | 0.776 | inactive
SLC35H1 | SID442901387 | -0.936 | -0.911 | -0.832 | inactive
DIABLO (diablo IAP-binding mitochondrial protein) | SID442899873 | -0.668 | -0.651 | -0.724 | inactive
CEACAM19 (CEA cell adhesion molecule 19) | SID442883787 | 1.01 | 3.13 | 2.84 | active
CYP2R1 (cytochrome P450 family 2 subfamily R member 1) | SID442888960 | 0.42 | 0.777 | 0.706 | inactive
LOC442203 (retired record) | SID442904611 | -1.4 | -2.02 | -1.82 | inactive
SPTA1 (spectrin alpha, erythrocytic 1) | SID442904146 | -1.41 | -2.17 | -0.954 | inactive
SLC37A1 | SID442885101 | 1.69 | 1.73 | 1.62 | inactive
TFRC (transferrin receptor) | SID442900488 | -0.499 | -0.834 | -0.967 | inactive
SLC35A2 | SID442898286 | -0.37 | -0.499 | -0.577 | inactive
TVP23C (trans-golgi network vesicle protein 23 homolog C) | SID442883575 | 2.77 | 3.1 | 2.04 | active
NKX6-3 (NK6 homeobox 3) | SID442893946 | -0.12 | 0.369 | -0.273 | inactive
FJX1 (four-jointed box kinase 1) | SID442895951 | -0.553 | -0.383 | 0.267 | inactive
SYNGAP1 (synaptic Ras GTPase activating protein 1) | SID442899465 | -0.647 | -0.282 | -0.944 | inactive
SUMO2 (small ubiquitin like modifier 2) | SID442896836 | -0.373 | 0.145 | -0.727 | inactive
CCNG2 (cyclin G2) | SID442898392 | -0.882 | 0.0379 | -0.636 | inactive
